# Source: PubChem BioAssay AID2417 (National Center for Advancing Translational Sciences (NCATS), 2010)
# Hit rate of the full screen: of about 140,000 compounds, about 4,300 (3.1%) were called active. This list was built around the results that the source calls inconclusive (neither active nor inactive); the mix of calls is not that of the screen.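 How the source made its calls: active means readout at or below -70, meaning at least 70% loss of cells showing the perinucleolar compartment, a nuclear body marking cancer cells; inconclusive means readout between -30 and a set limit; inactive means the rest.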
# Assay: High Content Assay for Compounds that inhibit the Assembly of the Perinucleolar Compartment
# Conditions: PC3M PTB-GFP, PNC prevalence imaging, 16 h; at 10 µM; hits give low values
# Description: High Content Assay for Compounds that inhibit the Assembly of the Perinucleolar Compartment NIH Chemical Genomics Center [NCGC] NIH Molecular Libraries Probe Centers Network [MLPCN] MLPCN Grant: MH082371-01A2 Assay Submitter (PI): Sui Huang, Northwestern University, Feinberg School of Medicine, Cell and Molecular Biology, Chicago, Illinois. The perinucleolar compartment (PNC) is a non-membrane-bound nuclear subdomain that is associated with but structurally distinct from the nucleolus. The PNC is a heritable trait, in which the number of PNCs per cell in daughter cells often mimics that of their mother cells. The PNC is heterogeneous in shape, is stable through interphase, disassembles during mitosis, and reassembles in early G1. The PNC is concentrated with newly synthesized RNA polymerase III (pol III) RNAs (MRP RNA, RNAse P H1 RNA, hY RNAs[hY1, 2, 5], Alu RNA, and SRP [7SL] RNA) and RNA binding proteins (nucleolin, PTB, CUG-BP, KSRP, Raver1, Raver2, and Rod). […] Extensive in vitro studies have shown that the PNC is unique to tumor cells and preferentially forms in tumor cells derived from solid tissues. Examination of cancer cell lines from various origins and malignant capacities has shown that PNC prevalence correlates with the malignancy of tumors and has the potential to be developed as a pan-cancer prognostic marker. […] Although the PNC is associated with a DNA locus and a handful of components have been identified, much remains to be investigated regarding the structure and function of the PNC and its mechanistic link to cancer. We have previously shown that PNC prevalence reduction is a valid strategy to identify compounds that can be used to study the structure and function of the PNC. It is necessary, however, to create a screening platform that is able to test a large number of compounds in an automated fashion. Here we report the development and robustness of an automated whole-cell phenotypic image-based screening assay that is capable of identifying such compounds.
# PNC High Content Imaging Assay Procedure: 1. Cells at a density of 75-90% confluency in T175 flasks were harvested using 7 ml TrypLE Express cell dissociation reagent. After dissociation (5 minutes room temperature incubation) 10 ml of complete media was added to the TrypLE/cell suspension. The liquid was transferred to a 50 ml Conical tube and cells were pelleted at 1000 RPM for 5 min. Supernatant was removed and cells were resuspended to a final density of 150-200 cells/ul in complete media. 2. Cells were plated in 5 ul volume (750-1000 cells/well) into 1536 well Black uclear Aurora Low Base plates and allowed to recover and adhere at 37 C in a humidified 5% CO2 incubator for 4 hours. 3. After 4 hour incubation, compound libraries (23 nl of […] in columns 5-48) were transferred to the plates in duplicate using a 1536 well pintool. Camptothecin positive control (59 uM final) was added to column 2 and 1:3 dilutions of camptothecin was added to column 3. DMSO negative controls were present in columns 1 and 4. 4. After a 16 hour incubation in the 37 C incubator, cells were fixed by the addition of 4 ul of 6% EM grade paraformaldehyde (containing 0.1% triton X 100) directly to the cells. The plates were incubated at room temperature for 20 minutes. The liquid was removed using a 32 channel Kalypsys aspirator and the fixed cells were washed twice with 5 ul PBS followed by a final addition of 5 ul PBS containing 1 ug/ml Hoechst 33342. 5. Fixed plates were sealed and sotred at 4C until imaged. 6. Plates were imaged on an InCell 1000 automated microscope using a 20 x objective, a standard FITC filter set, no camera binning, and an exposure time of ~100-150 msec/well. 7. Data analysis. PNC prevalence was determined using the Multitarget analysis module from InCell Workstation software (V3.5 ) and analysis was run on a quad core workstation using the Incell Developer Toolbox (V1.7). […]
row,SMILES,"activity change (PNC), negative = inhibition"
1,CC(=O)N1CCN(C(=O)COc2ccc(Br)cc2)CC1,active: -81.3%
2,CCSc1nc2c(c(=O)[nH]1)C(c1cccnc1)C(C(=O)OC)=C(C)N2 (configuration not stated),inconclusive: -30.3%
3,Cc1ccc(S(=O)(=O)NNC(=O)C2CCN(Cc3ccccc3)CC2)cc1,active: -100%
4,COc1ccc(S(=O)(=O)N(C)CC(=O)NCc2cccnc2)cc1OC,inconclusive: -46%
5,COC(=O)Nc1ccc(Oc2ccccc2)cc1,active: -92.9%
6,Cn1cnnc1Sc1nc2c(c(=O)n(C)c(=O)n2C)n1Cc1ccccc1Cl,active: -92.5%
7,CCOc1cccc(C(=O)NC(=S)Nc2cccnc2)c1,inactive: -2.94%
8,CCOc1ccccc1C(=O)NC(C(=O)OCC(=O)Nc1nnc(-c2ccccc2)o1)C(C)C (configuration not stated),inconclusive: -31.3%
9,COc1cc2c(cc1OC)C(c1cc3cc4c(cc3[nH]c1=O)OCO4)N(C(=O)C1CC1)CC2 (configuration not stated),active: -100%
10,CCOc1ccc(S(=O)(=O)n2ccc(C)n2)c2ccccc12,inconclusive: -37.1%
11,COc1cc2[nH]c(=O)n3nc(-c4ccccc4)nc3c2cc1OC,active: -100%
12,NC(=O)Nc1ccc(C(=O)OCC(=O)Nc2ccc([N+](=O)[O-])cc2C(F)(F)F)cc1,inactive: -23.1%
13,CCCCC(=O)Nc1ccc(C(=O)N2CCN(C)CC2)cc1,inactive: 22.9%
14,COC1=C(N)C(=O)c2nc(-c3nc(C(=O)O)c(C)c(-c4ccc(OC)c(OC)c4O)c3N)ccc2C1=O,active: -115%
15,COc1cc(OC)c(C2CC(=O)N3CN(C)CSC3=C2C#N)cc1OC (configuration not stated),inactive: -3.35%
16,O=C(Nc1cccc(Cl)c1)N1CCCC1,inactive: 13.4%
17,COc1ccc2c(c1)sc1nc(-c3ccccc3)cn12,active: -96.2%
18,COCCn1c(C)c(C(=O)O)sc1=S,inconclusive: -78.1%
19,O=S(=O)(c1ccc(Br)cc1)N1CCCN(Cc2ccccc2F)CC1,inconclusive: -30.2%

row,SMILES,"activity change (PNC), negative = inhibition"
1,O=C(Nc1ccccc1)c1ccc(Nc2c([N+](=O)[O-])cc([N+](=O)[O-])c3ccccc23)cc1,inconclusive: -35.7%
2,CC(C)OCCCNC(=S)Nc1ccc(S(N)(=O)=O)cc1,inconclusive: -54%
3,Cc1ccccc1OCc1nc2ccccc2c(=O)n1/N=C/c1cn[nH]c1-c1ccc(Br)cc1,inconclusive: -36.1%
4,CN(C)c1ccc(/C=N/N=C2/NC(=O)/C(=C/c3ccc([N+](=O)[O-])cc3)S2)cc1,inactive: -9.14%
5,O=C(NC1CCCCC1)c1cc(Cl)nc2ccccc12,inconclusive: -30.1%
6,CCCCC(c1nnnn1CC1CCCO1)N1CCN(Cc2ccccc2)CC1 (configuration not stated),active: -100%
7,CC1(C)Cc2nc3sc4c(SCC(=O)NCc5ccco5)ncnc4c3cc2CO1,inconclusive: -70.3%
8,O=C(NCCOc1ccccc1Cl)c1cc(F)c(F)cc1Cl,inconclusive: -44%
9,CCCCn1c2c(c(=N)c3c1CCC3)CCC2,inconclusive: -45.7%
10,O=C1CCCc2c1[nH]c1ccccc21,inconclusive: -69%
11,Cc1ccc(NC(=O)c2ccc(Nc3c([N+](=O)[O-])cc([N+](=O)[O-])cc3[N+](=O)[O-])cc2)cc1,inactive: -16%
12,Cc1ccc(N(Cc2ccc(C(=O)NN=C3CCN(C)CC3)cc2)S(C)(=O)=O)cc1C,inactive: -17.6%
13,COC(=O)c1c(-c2ccc(C)cc2)csc1NC(=O)c1c(-c2ccccc2)noc1C,inconclusive: -54%
14,CC(=O)Nc1c(C(=O)O)[nH]c2ccccc12,inconclusive: -37.3%
15,CCN1CCN(c2nc(Nc3cccc(C)c3)nc(N)c2[N+](=O)[O-])CC1,inactive: 19.6%
16,Cc1cc(C)nc(/N=C(/NC(=O)Nc2ccc(Cl)c(Cl)c2)Nc2cccc(Cl)c2)n1,active: -113%
17,Cc1ccc(C(=O)N/C(=C\c2ccco2)C(=O)NCC2CCCO2)cc1C (configuration not stated),inconclusive: -39.9%
18,O=C(CSc1nncs1)NCc1ccc2c(c1)OCO2,inconclusive: -33.6%
19,CC(C)COc1nc2ccccc2c(=O)n1OCC(=O)O,inconclusive: -38.1%

row,SMILES,"activity change (PNC), negative = inhibition"
1,CC(=O)C(Cc1cnc(Cl)s1)(Cc1cnc(Cl)s1)C(C)=O,inconclusive: -76.3%
2,O=C(COC(=O)CCC(=O)c1cccs1)Nc1ncc(Cl)cc1Cl,inconclusive: -45.6%
3,O=C(Nc1cccc2nsnc12)C1CC(=O)N(c2ccccc2)C1 (configuration not stated),inconclusive: -39.5%
4,C/C(=N\NC(=O)c1ccc(Cl)c(Cl)c1)c1cccc(NC(=O)C(C)C)c1,inconclusive: -34.5%
5,CC(=O)Oc1ccc2c(c1)Oc1cc(OC(C)=O)ccc1C21OC(=O)c2ccccc21,active: -100%
6,Cc1ccc2c(CC(=O)OCc3csc(C)n3)coc2c1,active: -100%
7,Cc1cccc2c1NC(C)CC2C (configuration not stated),inconclusive: -73.8%
8,CCN1CCCC1CNC1=NCCCCC1 (configuration not stated),inconclusive: -36.7%
9,Cc1cc(-c2ccc(/C=N/n3cnnc3)o2)ccc1Cl,inconclusive: -57.4%
10,CCCCN(CC)C(=O)Cc1ccc(Br)cc1,inconclusive: -30.8%
11,Cc1ccc(S(=O)(=O)N2CCC(=O)N(CCOC(=O)Nc3ccc(F)cc3)CC2)cc1,inconclusive: -43.9%
12,C/C(=N\NC(=O)c1c(Br)c(C)nn1C)c1ccc(NC(=O)C(C)Oc2ccc(Cl)cc2C)cc1 (configuration not stated),inactive: -6.33%
13,O=C(CSc1nnc(-c2cccs2)n1-c1ccccc1)N1CCCc2ccccc21,inactive: 1.5%
14,COc1ccc(N2CCN(C(=O)CSc3nnc4n3C(C)(C)Cc3ccccc3-4)CC2)cc1,active: -80.4%
15,CC1(C)Nc2ccccc2N(CCC(=O)N2CCOCC2)C1=O,inconclusive: -67.1%
16,N#C/C(=C\C=C\c1ccccc1[N+](=O)[O-])c1nc(-c2ccc3c(c2)OCO3)cs1,inactive: 14.1%
17,COC(=O)[C@@H](NC(=O)Nc1ccccc1F)C(C)C,inconclusive: -66.2%
18,CCc1c(C)sc2nc(SCC(=O)Nc3cc(C)on3)n(CCOC)c(=O)c12,inconclusive: -65.2%
19,CC(C)(C)NC(=O)c1nc2ccccc2s1,inconclusive: -30.1%

# Ordered by SMILES length (falling): part of the list above.
row,SMILES,"activity change (PNC), negative = inhibition"
11,Cc1ccc(S(=O)(=O)N2CCC(=O)N(CCOC(=O)Nc3ccc(F)cc3)CC2)cc1,inconclusive: -43.9%
2,O=C(COC(=O)CCC(=O)c1cccs1)Nc1ncc(Cl)cc1Cl,inconclusive: -45.6%
3,O=C(Nc1cccc2nsnc12)C1CC(=O)N(c2ccccc2)C1 (configuration not stated),inconclusive: -39.5%
19,CC(C)(C)NC(=O)c1nc2ccccc2s1,inconclusive: -30.1%
8,CCN1CCCC1CNC1=NCCCCC1 (configuration not stated),inconclusive: -36.7%
